From PubChem BioAssay AID2685 (National Center for Advancing Translational Sciences (NCATS), 2010)
The list shows a part of the results. The main result of the screen is listed elsewhere. These columns were measured beside it and carry no call. The list favours compounds with an active or inconclusive main result. Potencies come from curve fits of mixed quality, noted in brackets.

Assay: qHTS Assay for Lipid Storage Modulators in Drosophila S3 Cells;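 on cell number change: cells counted by Cell Tracker Red CMTPX staining in the red channel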
Settings: BODIPY lipid droplet fluorescence, 18-24 h; for cell number change: measured here: cell count max response, cells fed with added oleic acid
Method in brief: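 Drosophila S3 cells got compounds at several concentrations plus oleic acid (400 uM solution). Laser-scanning cytometry with 488 nm excitation read lipid droplets at 500-530 nm and cells at 575-640 nm. Percent activity was relative to 20 uM Triacsin C.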

[1] = measured here: cell number channel AC50, cells fed with added oleic acid
[2] = measured here: lipid fluorescence (Fed channel) AC50, cells fed with added oleic acid

| SMILES | cell number change [%] | AC50 [1] | AC50 [2] |
| --- | --- | --- | --- |
| CC(=O)c1ccc(OCC(=O)Nc2ccccc2C(=O)NC2CC2)cc1 | -48.2 | 18.4 µM [falling, partial curve, poor fit] | 20.6 µM [falling, partial curve] |
| CCOC(=O)/C=c1\s/c(=C(\C#N)C(=O)NC)n(-c2ccccc2)c1=O | -3.13 |  | 25.9 µM [falling, single point] |
| COC(=O)c1ccc(OCc2nc(N)nc(N3CCOCC3)n2)cc1 | 5.61 |  | 0.82 µM [rising, single point] |
| COCCNC(=O)c1ccc(-n2c(SCc3cc(F)ccc3F)nc3ccccc3c2=O)cc1 | -60.5 | 29.1 µM [falling, single point] | 29.1 µM [falling, single point] |
| NS(=O)(=O)c1ccc(O)c(NC(=O)c2ccc([N+](=O)[O-])o2)c1 | 11.1 |  | 0.461 µM [falling, single point] |
| CCOc1ncccc1C(=O)Nc1ccc(C)cn1 | 22.7 |  | 18.4 µM [rising, single point] |
| CC1(C)OC(=O)N(CC(=O)Nc2ccccc2)C1(C)O (configuration not stated) | 17.6 |  |  |
| CC(C)[C@@H](C(=O)NC1CCN(Cc2ccccc2)CC1)N1C(=O)N2CCc3c([nH]c4ccccc34)[C@@]2(C)C1=O | -9.71 |  | 29.1 µM [falling, single point] |
| O=C(O)Cc1c(-c2ccccc2)c2cc(Cl)ccc2[nH]c1=O | 13.4 |  |  |
| CC(=O)Nc1cccc(-c2nc3ccccc3s2)c1C | 10.4 | 1.3 µM [falling, full curve] | 1.46 µM [falling, full curve] |
| NC(=O)C1CCN(C(=O)C2(NC(=O)Nc3cccc(F)c3)CCCCC2)CC1 | 19.7 |  |  |
| COc1ccc(Cc2nnc(NC(=O)Nc3ccc(F)cc3)s2)cc1 | 29.9 |  | 3.26 µM [rising, full curve] |
| Oc1ccccc1-c1cc(-c2ccco2)[nH]n1 | 23.5 |  | 29.1 µM [rising, partial curve] |
| COC(=O)CSc1nnc(COc2ccc3ccccc3c2)o1 | -9.62 |  | 29.1 µM [rising, partial curve] |
| CC(=O)Nc1ccc(C(=O)N(C)C(C(=O)Nc2ccccc2)c2ccccn2)cc1 (configuration not stated) |  | 4.11 µM [falling, single point] |  |
| C(=N\n1cncn1)/c1ccc(N2CCOCC2)cc1 | -9.2 | 6.51 µM [falling, single point] | 6.51 µM [falling, single point] |
| C/C(CC(=O)Nc1ccccc1-c1ccccc1)=N\NC(=O)COc1ccc(C)cc1Br |  | 4.11 µM [rising, partial curve] |  |
| O=C(CCc1nc(-c2ccccc2F)no1)NCCN1CCOCC1 | -79.1 | 4.61 µM [falling, full curve, poor fit] | 1.3 µM [falling, full curve] |
| CCCCC[C@H]1CN(Cc2ccccc2)C(=O)[C@@H]1CC(=O)NCc1ccc(OC)cc1 | -24.6 |  |  |
| Cc1nn(C)cc1S(=O)(=O)N1CCCC(C(=O)O)C1 (configuration not stated) | 4.25 |  | 0.00517 µM [rising, full curve, poor fit] |

Molecules shown so far with nitrogen in an aromatic ring (14):

| SMILES | cell number change [%] | AC50 [1] | AC50 [2] |
| --- | --- | --- | --- |
| CCOC(=O)/C=c1\s/c(=C(\C#N)C(=O)NC)n(-c2ccccc2)c1=O | -3.13 |  | 25.9 µM [falling, single point] |
| COC(=O)c1ccc(OCc2nc(N)nc(N3CCOCC3)n2)cc1 | 5.61 |  | 0.82 µM [rising, single point] |
| COCCNC(=O)c1ccc(-n2c(SCc3cc(F)ccc3F)nc3ccccc3c2=O)cc1 | -60.5 | 29.1 µM [falling, single point] | 29.1 µM [falling, single point] |
| CCOc1ncccc1C(=O)Nc1ccc(C)cn1 | 22.7 |  | 18.4 µM [rising, single point] |
| CC(C)[C@@H](C(=O)NC1CCN(Cc2ccccc2)CC1)N1C(=O)N2CCc3c([nH]c4ccccc34)[C@@]2(C)C1=O | -9.71 |  | 29.1 µM [falling, single point] |
| O=C(O)Cc1c(-c2ccccc2)c2cc(Cl)ccc2[nH]c1=O | 13.4 |  |  |
| CC(=O)Nc1cccc(-c2nc3ccccc3s2)c1C | 10.4 | 1.3 µM [falling, full curve] | 1.46 µM [falling, full curve] |
| COc1ccc(Cc2nnc(NC(=O)Nc3ccc(F)cc3)s2)cc1 | 29.9 |  | 3.26 µM [rising, full curve] |
| Oc1ccccc1-c1cc(-c2ccco2)[nH]n1 | 23.5 |  | 29.1 µM [rising, partial curve] |
| COC(=O)CSc1nnc(COc2ccc3ccccc3c2)o1 | -9.62 |  | 29.1 µM [rising, partial curve] |
| CC(=O)Nc1ccc(C(=O)N(C)C(C(=O)Nc2ccccc2)c2ccccn2)cc1 (configuration not stated) |  | 4.11 µM [falling, single point] |  |
| C(=N\n1cncn1)/c1ccc(N2CCOCC2)cc1 | -9.2 | 6.51 µM [falling, single point] | 6.51 µM [falling, single point] |
| O=C(CCc1nc(-c2ccccc2F)no1)NCCN1CCOCC1 | -79.1 | 4.61 µM [falling, full curve, poor fit] | 1.3 µM [falling, full curve] |
| Cc1nn(C)cc1S(=O)(=O)N1CCCC(C(=O)O)C1 (configuration not stated) | 4.25 |  | 0.00517 µM [rising, full curve, poor fit] |

(more compounds)

| SMILES | cell number change [%] | AC50 [1] | AC50 [2] |
| --- | --- | --- | --- |
| COCCCn1cnc2oc3nc4ccccc4nc3c2c1=O | 4.18 |  | 18.4 µM [rising, single point] |
| COC(=O)c1ccc(CSc2nnc(NC(=O)c3cc4c(s3)CCCC4)s2)cc1 | -3.95 | 6.51 µM [falling, single point] |  |
| CN(C)c1ccc(NC(=O)Oc2ccccc2)cc1 | 13 |  | 29.1 µM [rising, single point] |
| Cc1cc(NC(=O)C(C)Sc2nc(-c3cccs3)nc3ccccc23)no1 (configuration not stated) | -42.3 | 20.6 µM [falling, single point] |  |
| CCN(CCn1cccn1)C(=O)CCc1nnc(Cc2c[nH]c3ccccc23)o1 | -41.6 | 32.6 µM [falling, partial curve] | 16.4 µM [falling, partial curve, poor fit] |
| Cc1ccc(NC(=O)CN2C(=O)NC3(CCCc4ccccc43)C2=O)cc1S(=O)(=O)N1CCOCC1 (configuration not stated) | -20.5 |  |  |
| COc1ccccc1-c1cn(S(=O)(=O)c2ccc(F)cc2)nc1N | -26.6 |  | 1.16 µM [rising, single point] |
| CCCCOc1c(Cl)cc(C(=O)N(C)CC(=O)Nc2ccc(N3CCOCC3)cc2)cc1OCC | 15.5 |  | 13 µM [rising, partial curve] |
| COc1ccc(/C=C2\SC(=S)N(CCCC(=O)Nc3ccc(C(=O)O)cc3)C2=O)cc1OC | 10.3 | 2.91 µM [rising, single point] | 29.1 µM [falling, single point] |
| Cc1ccc(NC(=O)N2CCN(S(=O)(=O)c3ccccc3)CC2)cc1 | 18.9 |  | 2.06 µM [rising, partial curve] |
| CC1(c2ccccc2)NC(=O)N(CC(=O)Nc2ccc(S(=O)(=O)Nc3ncccn3)cc2)C1=O (configuration not stated) | -20.5 | 0.291 µM [falling, full curve, poor fit] | 0.651 µM [falling, full curve] |
| CC(=O)Nc1ccc(Nc2ncc([N+](=O)[O-])c(Nc3ccc(NC(C)=O)cc3)n2)cc1 | -6.98 |  |  |
| COc1ccc2c(=O)c3c(=O)n(Cc4ccco4)c(-c4ccccc4)nc3oc2c1 | -21.9 |  | 2.06 µM [rising, partial curve] |
| NNC(=O)c1csc(COc2cc(Cl)cc(Cl)c2)n1 | 14.4 |  | 18.4 µM [rising, single point] |
| Cc1ccc(N)c(C(O)(C(F)(F)F)C(F)(F)F)c1 | -6.81 |  |  |
| Cc1ccc(Cl)cc1N1CCN(C(=O)c2noc(C(C)C)c2[N+](=O)[O-])CC1 | -41.1 |  | 29.1 µM [falling, single point] |
| COCCN(C(=O)CSc1nnc(-c2ccc(Cl)cc2)o1)c1c(N)n(CC(C)C)c(=O)[nH]c1=O | 33.9 |  |  |
| CN(C)CCCNC(=O)c1ccc(CN(c2ccccc2)S(C)(=O)=O)cc1 | 13.6 |  | 16.4 µM [rising, partial curve, poor fit] |
| Cc1ccc(Cl)cc1NC(=O)CNCC(c1ccccc1)N(C)C (configuration not stated) | 4.17 |  | 29.1 µM [falling, single point] |
| CCC(CC)NC(=O)c1ccc2c(c1)OCCO2 | -48.6 | 29.1 µM [falling, single point] |  |

Two records drawn at random from those above, as already listed:

| SMILES | cell number change [%] | AC50 [1] | AC50 [2] |
| --- | --- | --- | --- |
| CC1(c2ccccc2)NC(=O)N(CC(=O)Nc2ccc(S(=O)(=O)Nc3ncccn3)cc2)C1=O (configuration not stated) | -20.5 | 0.291 µM [falling, full curve, poor fit] | 0.651 µM [falling, full curve] |
| Cc1ccc(NC(=O)N2CCN(S(=O)(=O)c3ccccc3)CC2)cc1 | 18.9 |  | 2.06 µM [rising, partial curve] |

Later entries.

| SMILES | cell number change [%] | AC50 [1] | AC50 [2] |
| --- | --- | --- | --- |
| COc1cccc(C(=O)N/N=C(/CCC(=O)O)c2ccccc2)c1 | -1.67 |  | 7.31 µM [rising, partial curve, poor fit] |
| COc1cc(C(=O)NCCNC(=O)c2ccc(C)nc2)cc(OC)c1OC | 15.1 |  |  |
| Cc1cc(C)c(C(=O)CSc2nnc(-c3cccnc3)n2C)c(C)c1 | 63.9 | 1.3 µM [rising, full curve] |  |
| O=C1CC(=O)C(n2cncn2)C(c2ccc(Cl)cc2Cl)C1 (configuration not stated) | -48 | 14.6 µM [falling, partial curve] |  |
| Cc1cccc(N2CC(C(=O)Nc3ccc(S(=O)(=O)N4CCOCC4)cc3)CC2=O)c1C (configuration not stated) | 6.58 |  |  |
| COc1ccc2nc(NC(=O)CS(=O)(=O)Cc3ccccc3)sc2c1 | 2.32 | 3.66 µM [rising, single point] |  |
| Cc1sc(NC(=O)c2ccccc2)c(C(c2ccc(Cl)cc2)N2CCN(CCO)CC2)c1C (configuration not stated) | -14.4 |  | 6.51 µM [falling, single point] |
| Cc1cc(C)cc(NCc2cc(=O)oc3cc(-c4ccccc4)c(O)cc23)c1 | -51.4 | 16.4 µM [falling, partial curve] | 18.4 µM [falling, partial curve] |
| Cc1c([N+](=O)[O-])cc(C(=O)NCc2ccc(F)cc2)cc1[N+](=O)[O-] | 66.5 |  | 29.1 µM [rising, single point] |
| Nc1nonc1-n1nnc(C(=O)N/N=C/c2ccncc2)c1CSc1ccccc1 | 11.6 |  | 29.1 µM [falling, single point] |
| CC(=O)N1CN(Cc2ccccn2)Cc2c1sc1c2CCCC1 | 20.2 |  | 0.0164 µM [falling, full curve, poor fit] |
| C=CCC(=O)OCC(=O)Nc1ccc(Cl)cn1 | 0.119 |  | 0.517 µM [rising, single point] |
| CC(NC(=O)COC(=O)c1cc(Cl)nc(Cl)c1)c1ccccc1 (configuration not stated) | 5.99 |  | 0.316 µM [falling, full curve] |
| COc1ccc(C(=O)N/C(=C/c2ccco2)C(=O)N2CCCCCC2)cc1 | -11 |  | 6.51 µM [falling, single point] |
| CCN(CCCCCN(C)C)Cc1cc2ccccc2o1 |  |  | 16.4 µM [rising, single point] |
| Cc1nn(Cc2noc(C(=O)NCc3ccccn3)n2)c(C)c1Br | -1.47 |  | 0.00411 µM [falling, full curve, poor fit] |
| Cc1ccc(C2=NN(CCC#N)C(=O)CO2)cc1 | 9.26 |  | 0.092 µM [falling, full curve, poor fit] |
| CCN(C(=O)CCc1nnc2ccc(NCc3ccco3)nn12)c1ccccc1 | -17.3 |  | 0.58 µM [falling, single point] |
| CC(C)c1nc(CN2CCCCC2)cc(=O)[nH]1 | 67.7 | 6.51 µM [falling, single point] | 6.51 µM [falling, single point] |
| Cc1ccc(S(=O)(=O)NC(=NCc2ccccc2)c2ccc(F)cc2)cc1 | 23.4 |  | 2.06 µM [rising, full curve, poor fit] |
